Measurements as given in paper PMC10796919.
Results are given in words; binding and its absence hold for the method and conditions named. Binding seen in cells or lysates may run through a third protein. Some results given as binding are weak or reduced against the parent protein; the word gives no strength.

The chains behind the UniProt entries cited, without tags or fusion partners.
UniProt O96013: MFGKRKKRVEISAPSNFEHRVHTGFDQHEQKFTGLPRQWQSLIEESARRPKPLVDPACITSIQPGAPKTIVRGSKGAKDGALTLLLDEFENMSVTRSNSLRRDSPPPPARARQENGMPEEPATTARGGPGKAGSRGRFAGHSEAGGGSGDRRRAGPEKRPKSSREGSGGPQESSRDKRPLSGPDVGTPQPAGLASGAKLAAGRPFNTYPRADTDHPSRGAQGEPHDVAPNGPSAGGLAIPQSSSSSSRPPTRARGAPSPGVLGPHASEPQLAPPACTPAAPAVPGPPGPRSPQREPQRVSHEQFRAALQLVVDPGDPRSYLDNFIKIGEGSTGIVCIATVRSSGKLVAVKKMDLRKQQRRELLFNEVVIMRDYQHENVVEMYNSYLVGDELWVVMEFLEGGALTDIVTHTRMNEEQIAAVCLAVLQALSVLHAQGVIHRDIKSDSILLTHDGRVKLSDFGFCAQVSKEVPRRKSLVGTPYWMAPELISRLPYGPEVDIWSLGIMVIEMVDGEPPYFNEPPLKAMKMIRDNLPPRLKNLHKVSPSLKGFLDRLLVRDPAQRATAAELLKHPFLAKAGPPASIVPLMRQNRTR

Target: P21-activated kinase 4 (PAK4) (human (endogenous in A549-res and NCI-H520-res)) (UniProt O96013)
Assay: co-IP; lysates of A549-res and NCI-H520-res cells (6 x 10^6 cells, 400 ul lysis buffer, 4 °C); immunoprecipitated with 4 ug PAK4 or MEK1 antibody and protein G plus/protein A-agarose, 4 °C, 16 h; western blot with anti-MEK1 or anti-PAK4

binding: binds
Substance: mitogen-activated protein kinase kinase 1 (MAPKK1, MEK1) (from UniProt Q02750 1-393)
